From article PMC3572064

The chains behind the UniProt entries cited, without tags or fusion partners.
UniProt Q62048: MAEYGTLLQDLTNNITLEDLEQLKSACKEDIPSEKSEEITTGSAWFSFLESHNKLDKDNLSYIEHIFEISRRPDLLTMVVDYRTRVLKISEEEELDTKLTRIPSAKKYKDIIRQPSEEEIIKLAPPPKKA
UniProt A2AF53: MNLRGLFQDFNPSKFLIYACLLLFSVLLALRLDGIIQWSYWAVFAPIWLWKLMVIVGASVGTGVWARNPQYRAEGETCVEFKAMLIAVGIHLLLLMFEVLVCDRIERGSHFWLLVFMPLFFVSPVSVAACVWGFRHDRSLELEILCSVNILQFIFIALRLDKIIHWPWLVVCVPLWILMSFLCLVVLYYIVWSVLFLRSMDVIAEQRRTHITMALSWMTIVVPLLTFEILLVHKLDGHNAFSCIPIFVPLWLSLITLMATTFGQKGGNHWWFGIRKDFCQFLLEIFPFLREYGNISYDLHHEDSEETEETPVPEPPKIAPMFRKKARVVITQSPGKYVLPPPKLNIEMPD
UniProt P60766: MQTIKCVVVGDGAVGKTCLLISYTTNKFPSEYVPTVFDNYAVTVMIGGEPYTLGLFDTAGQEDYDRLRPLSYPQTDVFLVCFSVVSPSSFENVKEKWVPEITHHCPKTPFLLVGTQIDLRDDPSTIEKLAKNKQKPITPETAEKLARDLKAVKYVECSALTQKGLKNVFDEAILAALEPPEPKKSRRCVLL

Molecular target: GFP-TRPML1 (mouse), stably expressed in RAW264.7 macrophages (mouse) (UniProt Q99J21)
Experiment: affinity purification with mass spectrometry; anti-GFP beads on lysates of RAW264.7 clones stably expressing GFP-TRPML1 (Derlin-1-GFP clones as negative control); 20 mM Tris pH 7.5, 150 mM NaCl, 1% NP40, 5 mM EDTA (absence of Ca2+); MudPIT

| Molecule | binding |
| --- | --- |
| endogenous PEA-15 (from UniProt Q62048 1-130) | no binding |
| endogenous NP9 (from UniProt A2AF53 1-350) | binds |
| endogenous Cdc42 (from UniProt P60766 1-191) | binds |
| endogenous mouse STOML1 (protein, UniProt Q8CI66 1-399) MLGRSGYRALPLGDFDRFQQSSFGFLGSQKGCLSPEPGSVGPGADAPESWPSCLCHGLVSVLGFLLLLLTFPISGWFALKIVPTYERMIVFRLGRIRNPQGPGMVLLLPFIDSFQRVDLRTRAFNVPPCKLASKDGAVLSVGADVQFRIWDPVLSVMAVKDLNTATRMTAHNAMTKALLRRPLQEIQMEKLKIGDQLLLEINDVTRAWGLEVDRVELAVEAVLQPPQDSLTVPSLDSTLQQLALHLLGGSMNSAVGRVPSPGPDTLEMINEVEPPASLAGAGAEPSPKQPVAEGLLTALQPFLSEALVSQVGACYQFNVILPSGTQSIYFLDLTTGQGRVGHGEPDGIPDVVVEMAEADLQALLSKELRPLGAYMSGRLKVKGDLAVVMKLEAVLKALK | binds |

Results are given in words; binding and its absence hold for the method and conditions named. In cells and extracts the contact can be indirect. A yes stands for co-enrichment or nearness to the bait. Other partners may have been found. No binding means not detected with the bait.
